Data taken from patent CN115368458A.
Where a chain is given by its changes, count along the chain named. No constants are given. Whether binding was seen depends on the method and setting. Some entries that bind do so weakly or less than the wild type. Blank lines part the entries; values can stand above or below the binder they belong to.

How the values were obtained:
[1] = target: T1, hCD73-biotin (ACROBiosystems, CD3-H82E3) (human) (UniProt P21589); assay: phage ELISA on antigen hCD73
T1 sequence (biotin (site not stated), looked up): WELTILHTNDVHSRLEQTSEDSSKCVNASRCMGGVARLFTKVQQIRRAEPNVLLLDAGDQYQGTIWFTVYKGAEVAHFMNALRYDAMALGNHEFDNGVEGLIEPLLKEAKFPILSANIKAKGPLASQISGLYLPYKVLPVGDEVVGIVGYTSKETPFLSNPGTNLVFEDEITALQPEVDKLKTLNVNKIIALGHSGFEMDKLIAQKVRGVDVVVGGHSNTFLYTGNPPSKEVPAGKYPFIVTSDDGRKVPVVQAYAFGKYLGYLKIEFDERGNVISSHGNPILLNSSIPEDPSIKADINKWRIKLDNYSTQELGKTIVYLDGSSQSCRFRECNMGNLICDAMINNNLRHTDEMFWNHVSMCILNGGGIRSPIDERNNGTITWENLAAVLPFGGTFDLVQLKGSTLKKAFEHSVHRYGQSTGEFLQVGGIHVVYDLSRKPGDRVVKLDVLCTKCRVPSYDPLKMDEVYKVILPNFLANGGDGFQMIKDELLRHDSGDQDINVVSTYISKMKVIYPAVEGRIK

[2] = target: 食蟹猴cCD73-His (近岸生物, Catalog CD3-C52H9) (cynomolgus monkey); assay: ELISA, CD73-His coated at 2 μg/ml

B4: scFv(P59-L12) (scFv)
scFv: EVQLVESGGGLVQPGGSLRLSCAASGFSFDTYAMSWVRQAPGKGLEWVSAISGDTGVTGYADSVKGRFTISRDNSKNTLYLQMNSLRAEDTAVYYCARDRYAYLVDGWFDYWGQGTLVTVSSGGGGSGGGGSGGGGSDIQMTQSPSSLSASVGDRVTITCRASQGISSYLAWYQQKPGKAPKLLIYAASSLQSGVPSRFSGSGSGTDFTLTISSLQPEDFATYYCQTSDFFPNPVTFGQGTKVEIK
- binding [1]: binds

B5: 抗体P59-L17 (antibody, IgG1, V domains shown)
VH: EVQLVESGGGLVQPGGSLRLSCAASGFSFDTYAMSWVRQAPGKGLEWVSAISGDTGVTGYADSVKGRFTISRDNSKNTLYLQMNSLRAEDTAVYYCARDRYAYLVDGWFDYWGQGTLVTVSS
VL: DIQMTQSPSSLSASVGDRVTITCRASQGISSYLAWYQQKPGKAPKLLIYAASSLQSGVPSRFSGSGSGTDFTLTISSLQPEDFATYYCQTWSGWPDYLTFGQGTKVEIK
- binding [2]: binds

Next, values leading:

- binding [1]: binds
B1: scFv(P59-L1) (scFv)
scFv: B4 scFv with T227Q, S228A, D229S, F230Y, F231T, P232G, N233D

- binding [1]: binds
B2: scFv(P59-L17) (scFv)
scFv: B4 scFv with S228W, D229S, F230G, F231W, N233D, P234Y, V235L

- binding [1]: binds
B3: scFv(P59-L6) (scFv)
scFv: B4 scFv with Q226A, T227Q, S228Y, F231S, P232F, N233Y, P234G
